Some of the results follow.
Compound: CC1=NC(=CC=C1)C2=C(N=C(N2)C(C)(C)C)C3=CC4=NC=CN=C4C=C3
Assay: log2 fold change, soluble protein after heating vs DMSO (PISA); higher = thermal stabilisation; K562 cells, 10 uM, 30 min; active = over 0.2 and 3.5 SD of the protein, either way, in both replicates (recomputed)
How it was run: (§1)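 Aliquots of K562 cells (2×10^6 cells/mL) treated with 10 μM compound for 30 min were heated for 3 min over 48°C-58°C. After pooling and extraction in PBS with 0.5% NP-40 at 4°C, soluble protein from a 21,000xg, 90 min spin was quantified by TMTpro 16plex LC-MS/MS with channel sums equalised. Thermal stability is expressed against control samples, from duplicates, as a log2 fold change.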

Amino acid sequences for entries named in this document (tags omitted). A change or cut given only in a name is not applied to a line headed by its entry.
UniProt Q96IV6: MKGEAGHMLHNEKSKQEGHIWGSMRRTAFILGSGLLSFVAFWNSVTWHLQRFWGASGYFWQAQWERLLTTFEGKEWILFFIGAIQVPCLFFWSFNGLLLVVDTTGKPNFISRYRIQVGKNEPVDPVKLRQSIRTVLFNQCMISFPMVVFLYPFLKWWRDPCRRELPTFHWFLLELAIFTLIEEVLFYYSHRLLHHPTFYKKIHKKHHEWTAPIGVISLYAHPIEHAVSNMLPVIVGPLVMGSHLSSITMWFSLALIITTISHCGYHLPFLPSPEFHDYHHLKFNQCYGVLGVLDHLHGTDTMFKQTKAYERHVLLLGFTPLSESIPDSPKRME
UniProt B1AJZ9: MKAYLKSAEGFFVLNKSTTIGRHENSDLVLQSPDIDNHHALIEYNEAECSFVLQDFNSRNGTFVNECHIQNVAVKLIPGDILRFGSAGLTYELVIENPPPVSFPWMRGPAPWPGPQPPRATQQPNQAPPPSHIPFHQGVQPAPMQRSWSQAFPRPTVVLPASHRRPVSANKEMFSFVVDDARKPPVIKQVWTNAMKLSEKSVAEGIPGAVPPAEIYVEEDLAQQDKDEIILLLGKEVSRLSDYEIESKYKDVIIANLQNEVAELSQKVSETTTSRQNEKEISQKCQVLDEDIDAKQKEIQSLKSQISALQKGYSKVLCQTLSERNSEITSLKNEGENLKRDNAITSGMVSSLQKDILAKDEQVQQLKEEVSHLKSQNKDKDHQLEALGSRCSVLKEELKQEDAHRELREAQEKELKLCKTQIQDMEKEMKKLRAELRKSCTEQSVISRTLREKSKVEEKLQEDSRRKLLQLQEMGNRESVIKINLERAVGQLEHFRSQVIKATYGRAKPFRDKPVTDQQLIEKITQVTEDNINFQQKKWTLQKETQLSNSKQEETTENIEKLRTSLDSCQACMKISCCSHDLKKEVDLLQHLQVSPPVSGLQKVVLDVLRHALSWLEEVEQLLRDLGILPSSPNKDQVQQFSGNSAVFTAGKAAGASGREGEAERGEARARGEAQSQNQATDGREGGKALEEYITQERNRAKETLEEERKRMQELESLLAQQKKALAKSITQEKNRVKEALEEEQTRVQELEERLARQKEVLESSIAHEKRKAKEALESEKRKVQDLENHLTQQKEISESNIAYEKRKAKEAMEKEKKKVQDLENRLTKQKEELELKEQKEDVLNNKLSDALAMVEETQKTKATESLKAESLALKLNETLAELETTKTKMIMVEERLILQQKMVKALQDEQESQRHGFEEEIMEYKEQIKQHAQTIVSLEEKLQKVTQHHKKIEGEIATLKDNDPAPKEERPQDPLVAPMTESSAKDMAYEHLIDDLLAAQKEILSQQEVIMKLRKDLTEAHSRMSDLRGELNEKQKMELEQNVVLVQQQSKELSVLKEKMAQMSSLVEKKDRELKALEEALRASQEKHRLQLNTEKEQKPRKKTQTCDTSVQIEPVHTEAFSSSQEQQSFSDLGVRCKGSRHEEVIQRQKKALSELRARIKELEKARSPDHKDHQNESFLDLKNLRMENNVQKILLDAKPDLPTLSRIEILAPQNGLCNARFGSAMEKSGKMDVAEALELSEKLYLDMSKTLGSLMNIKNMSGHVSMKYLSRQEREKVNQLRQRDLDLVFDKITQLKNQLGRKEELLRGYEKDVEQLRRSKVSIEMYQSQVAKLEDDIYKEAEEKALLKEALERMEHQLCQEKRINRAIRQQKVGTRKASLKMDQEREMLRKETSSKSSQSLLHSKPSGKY
UniProt Q8TES7: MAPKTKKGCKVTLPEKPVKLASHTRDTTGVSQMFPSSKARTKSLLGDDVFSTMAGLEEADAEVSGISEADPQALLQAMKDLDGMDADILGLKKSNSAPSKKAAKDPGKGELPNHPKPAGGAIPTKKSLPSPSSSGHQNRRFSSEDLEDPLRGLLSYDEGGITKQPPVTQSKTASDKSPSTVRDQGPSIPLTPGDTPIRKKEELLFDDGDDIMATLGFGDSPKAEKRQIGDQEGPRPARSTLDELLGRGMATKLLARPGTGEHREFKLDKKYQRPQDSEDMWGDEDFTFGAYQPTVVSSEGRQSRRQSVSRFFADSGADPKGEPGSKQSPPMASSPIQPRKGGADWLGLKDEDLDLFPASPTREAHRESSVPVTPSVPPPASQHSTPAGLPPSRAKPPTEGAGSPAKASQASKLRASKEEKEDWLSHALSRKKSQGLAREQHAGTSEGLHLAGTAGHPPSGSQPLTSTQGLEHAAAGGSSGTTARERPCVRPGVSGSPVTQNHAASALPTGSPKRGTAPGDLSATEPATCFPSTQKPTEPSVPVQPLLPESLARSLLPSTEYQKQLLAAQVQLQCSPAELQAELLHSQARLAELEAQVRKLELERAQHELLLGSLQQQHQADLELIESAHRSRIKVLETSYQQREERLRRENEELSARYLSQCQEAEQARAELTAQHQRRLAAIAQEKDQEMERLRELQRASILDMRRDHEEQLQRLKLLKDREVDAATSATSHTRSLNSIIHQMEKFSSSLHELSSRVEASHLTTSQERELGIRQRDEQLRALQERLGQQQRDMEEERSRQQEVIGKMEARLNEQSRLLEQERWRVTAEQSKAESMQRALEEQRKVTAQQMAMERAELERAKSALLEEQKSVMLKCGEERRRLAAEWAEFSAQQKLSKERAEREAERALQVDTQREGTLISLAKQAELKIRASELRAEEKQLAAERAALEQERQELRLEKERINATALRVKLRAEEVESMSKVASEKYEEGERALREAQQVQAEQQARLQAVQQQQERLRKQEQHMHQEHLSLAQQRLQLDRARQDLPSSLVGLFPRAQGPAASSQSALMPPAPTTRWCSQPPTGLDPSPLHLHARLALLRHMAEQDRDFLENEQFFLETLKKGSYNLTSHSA
UniProt Q9UKB1: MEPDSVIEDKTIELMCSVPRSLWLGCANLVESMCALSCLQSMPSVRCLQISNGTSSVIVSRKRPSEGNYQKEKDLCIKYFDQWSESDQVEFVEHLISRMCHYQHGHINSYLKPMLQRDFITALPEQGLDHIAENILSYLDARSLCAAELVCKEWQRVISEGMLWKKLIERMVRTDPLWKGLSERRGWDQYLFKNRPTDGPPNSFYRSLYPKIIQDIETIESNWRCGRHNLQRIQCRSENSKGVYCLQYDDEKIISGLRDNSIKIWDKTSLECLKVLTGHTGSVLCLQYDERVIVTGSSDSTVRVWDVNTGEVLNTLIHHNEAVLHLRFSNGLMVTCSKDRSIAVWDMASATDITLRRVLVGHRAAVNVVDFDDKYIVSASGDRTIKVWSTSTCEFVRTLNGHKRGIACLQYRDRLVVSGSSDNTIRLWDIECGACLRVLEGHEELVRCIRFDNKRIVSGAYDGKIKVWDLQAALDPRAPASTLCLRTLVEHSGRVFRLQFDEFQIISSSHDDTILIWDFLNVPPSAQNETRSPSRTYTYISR
UniProt Q8IW50: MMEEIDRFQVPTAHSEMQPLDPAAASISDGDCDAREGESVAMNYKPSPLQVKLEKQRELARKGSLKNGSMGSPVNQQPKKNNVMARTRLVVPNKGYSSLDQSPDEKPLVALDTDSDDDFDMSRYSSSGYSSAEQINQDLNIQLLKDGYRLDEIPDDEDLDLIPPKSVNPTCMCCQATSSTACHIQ
UniProt A6ND36: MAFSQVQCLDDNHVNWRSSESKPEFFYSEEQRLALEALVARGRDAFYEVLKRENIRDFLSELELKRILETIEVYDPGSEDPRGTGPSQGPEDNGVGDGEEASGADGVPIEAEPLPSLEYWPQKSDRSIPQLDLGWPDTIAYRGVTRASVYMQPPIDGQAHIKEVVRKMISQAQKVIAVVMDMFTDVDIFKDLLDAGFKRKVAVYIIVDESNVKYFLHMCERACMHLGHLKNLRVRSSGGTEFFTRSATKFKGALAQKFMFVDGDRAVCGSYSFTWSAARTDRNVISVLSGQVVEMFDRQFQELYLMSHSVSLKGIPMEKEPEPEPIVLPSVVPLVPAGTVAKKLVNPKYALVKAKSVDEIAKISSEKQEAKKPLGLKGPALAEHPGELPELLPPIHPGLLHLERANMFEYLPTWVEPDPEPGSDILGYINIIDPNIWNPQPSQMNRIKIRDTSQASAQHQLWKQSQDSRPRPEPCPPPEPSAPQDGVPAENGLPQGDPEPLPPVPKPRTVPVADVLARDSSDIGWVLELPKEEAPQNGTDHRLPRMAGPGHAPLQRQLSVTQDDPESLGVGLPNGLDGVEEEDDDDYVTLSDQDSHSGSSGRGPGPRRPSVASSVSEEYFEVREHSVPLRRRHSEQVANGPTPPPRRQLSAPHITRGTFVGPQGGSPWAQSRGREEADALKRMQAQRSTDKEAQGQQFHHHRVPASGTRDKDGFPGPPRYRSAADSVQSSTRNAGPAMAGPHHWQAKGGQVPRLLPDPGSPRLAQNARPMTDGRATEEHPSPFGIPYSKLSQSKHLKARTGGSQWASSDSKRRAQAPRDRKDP
UniProt Q8N0W7: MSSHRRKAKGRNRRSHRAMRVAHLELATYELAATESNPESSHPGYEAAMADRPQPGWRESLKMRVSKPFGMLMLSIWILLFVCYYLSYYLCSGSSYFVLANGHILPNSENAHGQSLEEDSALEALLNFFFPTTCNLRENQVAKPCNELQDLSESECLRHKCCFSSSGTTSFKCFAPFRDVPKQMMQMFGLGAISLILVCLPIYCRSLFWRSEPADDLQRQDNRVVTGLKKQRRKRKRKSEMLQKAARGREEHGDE
UniProt Q9UKA2: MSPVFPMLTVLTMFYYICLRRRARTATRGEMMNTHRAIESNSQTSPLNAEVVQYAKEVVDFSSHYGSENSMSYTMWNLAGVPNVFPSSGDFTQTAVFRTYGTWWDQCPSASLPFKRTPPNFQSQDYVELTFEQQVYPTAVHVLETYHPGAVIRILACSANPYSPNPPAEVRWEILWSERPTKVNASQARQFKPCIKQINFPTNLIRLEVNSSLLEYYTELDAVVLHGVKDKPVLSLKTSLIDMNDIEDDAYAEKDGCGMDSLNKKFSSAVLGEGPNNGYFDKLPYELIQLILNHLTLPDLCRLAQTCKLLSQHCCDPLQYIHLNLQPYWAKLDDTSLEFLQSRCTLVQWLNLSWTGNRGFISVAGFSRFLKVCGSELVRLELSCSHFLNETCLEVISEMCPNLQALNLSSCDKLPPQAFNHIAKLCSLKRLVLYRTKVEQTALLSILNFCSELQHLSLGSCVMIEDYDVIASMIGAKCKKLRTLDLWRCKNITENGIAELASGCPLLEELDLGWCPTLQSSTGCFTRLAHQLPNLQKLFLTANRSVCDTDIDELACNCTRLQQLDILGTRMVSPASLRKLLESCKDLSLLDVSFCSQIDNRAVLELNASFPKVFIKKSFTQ
UniProt Q8TAV0: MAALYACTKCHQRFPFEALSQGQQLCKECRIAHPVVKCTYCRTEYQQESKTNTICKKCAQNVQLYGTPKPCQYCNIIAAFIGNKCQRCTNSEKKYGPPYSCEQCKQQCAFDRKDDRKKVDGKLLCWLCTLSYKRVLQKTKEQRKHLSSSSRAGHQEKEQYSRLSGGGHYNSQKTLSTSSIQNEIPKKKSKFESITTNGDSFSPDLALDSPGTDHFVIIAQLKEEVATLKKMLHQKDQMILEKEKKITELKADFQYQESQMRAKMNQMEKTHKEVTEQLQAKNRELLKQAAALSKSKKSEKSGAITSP
UniProt Q86XK2: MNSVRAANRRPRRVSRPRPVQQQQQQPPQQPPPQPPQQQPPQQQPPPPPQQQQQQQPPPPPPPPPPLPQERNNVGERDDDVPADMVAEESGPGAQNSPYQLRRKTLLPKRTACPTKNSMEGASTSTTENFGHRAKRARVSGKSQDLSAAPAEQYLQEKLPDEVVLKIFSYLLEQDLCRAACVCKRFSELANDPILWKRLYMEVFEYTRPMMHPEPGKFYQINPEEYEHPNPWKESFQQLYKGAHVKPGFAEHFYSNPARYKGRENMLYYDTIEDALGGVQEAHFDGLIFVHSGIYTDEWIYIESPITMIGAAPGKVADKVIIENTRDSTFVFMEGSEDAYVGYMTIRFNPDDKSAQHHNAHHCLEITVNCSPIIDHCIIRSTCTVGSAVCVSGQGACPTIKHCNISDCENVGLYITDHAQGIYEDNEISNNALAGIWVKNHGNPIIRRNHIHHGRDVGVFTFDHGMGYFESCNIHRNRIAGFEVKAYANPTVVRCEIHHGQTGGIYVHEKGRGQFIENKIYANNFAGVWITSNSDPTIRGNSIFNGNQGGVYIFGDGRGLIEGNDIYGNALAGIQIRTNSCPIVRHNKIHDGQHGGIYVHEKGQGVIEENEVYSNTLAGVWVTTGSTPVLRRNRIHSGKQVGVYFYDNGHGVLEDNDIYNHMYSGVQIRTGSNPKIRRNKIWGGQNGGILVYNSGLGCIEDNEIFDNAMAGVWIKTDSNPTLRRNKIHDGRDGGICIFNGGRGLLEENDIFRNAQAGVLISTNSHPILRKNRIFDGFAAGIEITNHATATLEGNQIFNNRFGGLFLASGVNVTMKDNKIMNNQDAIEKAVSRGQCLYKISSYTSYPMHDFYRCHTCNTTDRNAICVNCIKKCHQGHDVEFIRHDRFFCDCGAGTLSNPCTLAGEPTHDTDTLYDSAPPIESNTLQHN

Row | Target | log2 fold change
1 | FAM53B (UniProt Q14153) | inactive: -0.007
2 | FAT2 (UniProt Q9NYQ8) | inactive: -0.114
3 | FGGY isoform 3 (UniProt Q96C11) | inactive: 0.026
4 | FAXDC2 (UniProt Q96IV6) | inactive: -0.139
5 | FIZ1 (UniProt Q96SL8) | inactive: -0.047
6 | FHAD1 isoform 3 (UniProt B1AJZ9) | inactive: 0.193
7 | FBF1 isoform 6 (UniProt Q8TES7) | inactive: -0.076
8 | FBXO9 (UniProt Q9UK97) | inactive: -0.025
9 | FGFR1OP2 (UniProt Q9NVK5) | inactive: -0.099
10 | FBXW11 (UniProt Q9UKB1) | inactive: 0.134
11 | FBRS (UniProt J3KNZ9) | inactive: -0.174
12 | FAM219A (UniProt Q8IW50) | inactive: 0.064

Compound: CCCCN(Cc1ccc(C(=O)NO)cc1)C(=O)Nc1ccccc1 [Nexturastat A]
Assay: as above
How it was run: as §1

Row | Target | log2 fold change
13 | FAM53B (UniProt Q14153) | inactive: 0.127
14 | FAM83G (UniProt A6ND36) | inactive: 0.096
15 | FAM222B (UniProt Q8WU58) | inactive: 0.088
16 | FAT2 (UniProt Q9NYQ8) | inactive: 0.456
17 | FGGY isoform 3 (UniProt Q96C11) | inactive: 0
18 | FMNL1 isoform 3 (UniProt O95466) | inactive: 0.669
19 | FIZ1 (UniProt Q96SL8) | inactive: 0.102
20 | FBXL8 (UniProt Q96CD0) | inactive: -0.207
21 | FNIP1 (UniProt Q8TF40) | inactive: -0.046
22 | FMR1NB (UniProt Q8N0W7) | inactive: -0.333
23 | FBXL4 (UniProt Q9UKA2) | inactive: 0.436
24 | FAM76A isoform 3 (UniProt Q8TAV0) | inactive: 0.027
25 | FBXO33 (UniProt Q7Z6M2) | inactive: 0.02
26 | FHL1 isoform 4 (UniProt Q13642) | inactive: 0.153
27 | FBXO11 isoform 5 (UniProt Q86XK2) | inactive: 0.119
28 | FGFR1OP2 (UniProt Q9NVK5) | inactive: -0.057
29 | FBRS (UniProt J3KNZ9) | inactive: 0.554
30 | FAM219A (UniProt Q8IW50) | inactive: 0.001
31 | FBRSL1 (UniProt Q9HCM7) | inactive: -0.07

— the supplement of paper PMC10849652
